Assay results as given in patent US20100173362A1.
Numbering of substitutions follows the chain as printed. No constants are given. Whether binding was seen depends on the method and setting. Some results given as binding are weak or reduced against the parent protein; the word gives no strength. Values belong to the binder of their own block, whether it stands above or below them.

Amino acid sequences for entries named in this document (tags omitted). A change or cut given only in a name is not applied to a line headed by its entry. Residues count along the entry.
UniProt Q08048: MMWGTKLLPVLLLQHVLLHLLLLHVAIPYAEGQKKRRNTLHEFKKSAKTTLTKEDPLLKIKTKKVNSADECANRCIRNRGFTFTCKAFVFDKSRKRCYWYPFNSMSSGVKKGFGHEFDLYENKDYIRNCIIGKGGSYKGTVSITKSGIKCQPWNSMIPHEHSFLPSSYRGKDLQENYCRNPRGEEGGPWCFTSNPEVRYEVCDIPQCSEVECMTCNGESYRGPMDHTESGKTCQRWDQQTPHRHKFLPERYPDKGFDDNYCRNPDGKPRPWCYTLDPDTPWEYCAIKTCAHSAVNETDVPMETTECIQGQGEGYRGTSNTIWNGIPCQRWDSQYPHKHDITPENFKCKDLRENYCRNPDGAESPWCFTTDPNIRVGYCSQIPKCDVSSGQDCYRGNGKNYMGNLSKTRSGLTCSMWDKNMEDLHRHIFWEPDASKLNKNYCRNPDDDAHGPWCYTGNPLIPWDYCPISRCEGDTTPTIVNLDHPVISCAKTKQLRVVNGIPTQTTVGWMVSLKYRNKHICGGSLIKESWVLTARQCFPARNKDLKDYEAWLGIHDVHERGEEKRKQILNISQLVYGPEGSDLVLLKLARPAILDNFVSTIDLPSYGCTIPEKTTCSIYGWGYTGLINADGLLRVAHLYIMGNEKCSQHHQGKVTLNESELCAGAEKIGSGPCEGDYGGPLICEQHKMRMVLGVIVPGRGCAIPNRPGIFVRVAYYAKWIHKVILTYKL
UniProt P14210, residues 32-728: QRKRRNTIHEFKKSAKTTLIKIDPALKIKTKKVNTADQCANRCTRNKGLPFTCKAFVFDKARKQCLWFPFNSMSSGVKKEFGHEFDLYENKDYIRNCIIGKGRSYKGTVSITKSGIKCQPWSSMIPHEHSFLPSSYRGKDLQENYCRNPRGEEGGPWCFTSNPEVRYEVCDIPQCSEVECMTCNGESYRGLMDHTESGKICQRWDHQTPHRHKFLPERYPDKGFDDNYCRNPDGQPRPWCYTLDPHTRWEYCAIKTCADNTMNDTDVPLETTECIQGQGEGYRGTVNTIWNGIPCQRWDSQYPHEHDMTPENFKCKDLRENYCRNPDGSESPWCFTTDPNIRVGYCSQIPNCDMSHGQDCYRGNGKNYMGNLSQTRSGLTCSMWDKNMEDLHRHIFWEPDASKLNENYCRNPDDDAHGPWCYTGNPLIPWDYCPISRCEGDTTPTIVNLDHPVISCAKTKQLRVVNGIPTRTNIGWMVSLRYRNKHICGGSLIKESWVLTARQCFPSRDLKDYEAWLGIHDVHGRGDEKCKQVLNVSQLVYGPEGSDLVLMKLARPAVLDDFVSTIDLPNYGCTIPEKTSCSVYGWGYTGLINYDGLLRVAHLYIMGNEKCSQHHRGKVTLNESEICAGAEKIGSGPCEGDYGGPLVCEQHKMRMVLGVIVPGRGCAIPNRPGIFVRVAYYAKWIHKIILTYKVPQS

How the values were obtained:
[1] = target: mhm chimera (V495-L585) (mouse HGF with human HGF V495-L585) (UniProt Q08048); test: SPR (BIAcore T100), summary of Table 3
[2] = target: human HGF (recombinant hHGF of Example 3) (human) (UniProt P14210); test: SPR (BIAcore T100), summary of Table 3
reduced rhHGF (human) [3] = target: reduced rhHGF (human) (UniProt P14210); test: immunoblot, reduced rhHGF, summary of Table 4
[4] = target: mhm chimera (V495-L585) (mouse HGF with human HGF V495-L585) (UniProt Q08048); test: SPR (BIAcore T100), antibody amine-coupled on CM5 chip, antigen injected; yes/no
[5] = target: human HGF (recombinant hHGF of Example 3) (human) (UniProt P14210); test: as above
reduced rhHGF (human) [6] = target: reduced rhHGF (human) (UniProt P14210); test: immunoblot, reduced rhHGF, antibody 5 µg/mL, exposure 3-5 min, grade - to 3+

B3: 1A3 (antibody, mouse IgG1, kappa, V domains shown)
VH: EVQLVESGGGLVQPGGSLKLSCAASEFTFSNYYMSWVRQTPEKRLQWVAYISPGGGSSYYPASVKGRFTISRDNAKNTLYLQMSSLKSEDTAMYYCARQGDGYYGDYAMDYWGQGTSVTVSS
VL: DIQMTQSPASLSVSVGETVTITCRASENIYSNLAWYQQKQGKSPQLLVYAATNLADGVPSRFSGSGSGTQFSLKINSLQSEDFGTYYCQHFWGTPYTFGGGTKLEIKR
binding [2]: binds
binding (reduced rhHGF (human) [3]): binds
binding [5]: binds
binding (reduced rhHGF (human) [6]): binds

B4: 3B6 (antibody, mouse IgG1, kappa, V domains shown)
VH: QVQLQQSGAELVRPGSSVKISCKASGYVFSSYWMNWVKQRPGQGLEWIGQIYPGDGDSNYNGNFKGKATLTADKSSSTAYMQLSSLTSEDSAVYFCASQLGLRENYFDYWGQGTTLTVSS
VL: DIKMTQSPSSMYASLGERVTITCKASQDIKSYLSWFQQKPGKSPKTLIYRVNRLVDGVPSRFSGSGSGQDSSLTITSLENEDMGIYYCLQYDEFPFTFGGGTKLEIKR
binding [2]: binds
binding (reduced rhHGF (human) [3]): binds
binding [5]: binds
binding (reduced rhHGF (human) [6]): binds

B5: 2F8 (antibody, mouse IgG1, kappa, V domains shown)
VH: QVQLKQSGAELVRPGTSVKMSCKASGYTFTTYYIHWVNQRPGQGLEWIGKIGPGSGSTYYNEMFKDKATLTVDTSSSTAYMQLSSLTSDDSAVYFCARRGLGRGFDYWGQGTTLTVSS
VL: DIVLTQSPASLAVSLGQRATISCKASQSVDYDGNSYINWYQQKPGQPPKVLIYVASNLESGIPARFSGSGSGTDFTLNIHPVEEEDAATYYCQQSIEDPPTFGAGTKLELKR
binding [2]: binds
binding (reduced rhHGF (human) [3]): binds
binding [5]: binds
binding (reduced rhHGF (human) [6]): binds

Further lines, results first:

binding [1]: binds
binding [2]: binds
binding (reduced rhHGF (human) [3]): binds
binding [4]: binds
binding [5]: binds
binding (reduced rhHGF (human) [6]): binds
B1: 1F3 (antibody, mouse IgG1, kappa, V domains shown)
VH: B3 VH with P14S, E26G, Y33F, Q46E, P53S, S58T, A62D, A97V
VL: B3 VL with A50D, N53H, A55P, T85S, K103R

binding [1]: binds
binding [2]: binds
binding (reduced rhHGF (human) [3]): binds
binding [4]: binds
binding [5]: binds
binding (reduced rhHGF (human) [6]): binds
B2: 1D3 (antibody, mouse IgG1, kappa, V domains shown)
VH: B3 VH with E26G, N31D, Q46E, P53S, S58T, A62D, M93I, A97V, T119I
VL: B3 VL with A25T, V48I, K74R, T85R
